Measured values published in publication doi:10.1101/2022.10.27.514150.
No constants are given. Whether binding was seen depends on the method and setting. In cells and extracts the contact can be indirect. A result given as binding can be weak or reduced; the word gives no strength. Sequences can lack the tags named with a protein.

What was measured:
[1] = target: T1, Gluc2-p107 (UniProt P28749); assay: split reporter
T1 sequence: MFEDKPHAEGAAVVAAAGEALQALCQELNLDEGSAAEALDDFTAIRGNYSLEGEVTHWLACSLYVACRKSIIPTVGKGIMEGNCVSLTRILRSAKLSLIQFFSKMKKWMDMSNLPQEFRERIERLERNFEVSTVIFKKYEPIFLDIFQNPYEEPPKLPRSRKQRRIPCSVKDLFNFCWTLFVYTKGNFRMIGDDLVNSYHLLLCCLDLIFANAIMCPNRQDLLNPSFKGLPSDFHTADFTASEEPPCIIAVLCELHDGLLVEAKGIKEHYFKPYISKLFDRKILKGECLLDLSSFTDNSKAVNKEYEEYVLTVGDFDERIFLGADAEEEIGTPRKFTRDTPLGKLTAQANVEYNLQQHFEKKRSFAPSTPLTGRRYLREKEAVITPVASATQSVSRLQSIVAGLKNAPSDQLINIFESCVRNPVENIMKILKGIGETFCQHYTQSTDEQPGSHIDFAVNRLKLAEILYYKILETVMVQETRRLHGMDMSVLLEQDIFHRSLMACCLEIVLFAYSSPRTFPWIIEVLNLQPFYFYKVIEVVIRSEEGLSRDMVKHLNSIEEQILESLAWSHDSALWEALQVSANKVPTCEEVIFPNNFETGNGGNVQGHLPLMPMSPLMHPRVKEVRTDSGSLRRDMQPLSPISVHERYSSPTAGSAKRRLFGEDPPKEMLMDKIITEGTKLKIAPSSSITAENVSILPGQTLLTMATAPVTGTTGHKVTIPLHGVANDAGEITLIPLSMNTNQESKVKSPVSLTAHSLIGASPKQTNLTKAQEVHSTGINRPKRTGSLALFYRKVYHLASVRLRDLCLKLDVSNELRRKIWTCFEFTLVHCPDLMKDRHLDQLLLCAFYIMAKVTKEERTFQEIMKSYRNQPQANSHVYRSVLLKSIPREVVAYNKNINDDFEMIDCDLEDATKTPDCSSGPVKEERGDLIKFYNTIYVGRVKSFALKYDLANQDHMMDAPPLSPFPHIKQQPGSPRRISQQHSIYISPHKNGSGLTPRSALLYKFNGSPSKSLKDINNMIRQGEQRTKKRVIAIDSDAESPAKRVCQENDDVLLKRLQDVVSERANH

[2] = target: T2, Gluc2-pRb (UniProt P06400); assay: split reporter
T2 sequence: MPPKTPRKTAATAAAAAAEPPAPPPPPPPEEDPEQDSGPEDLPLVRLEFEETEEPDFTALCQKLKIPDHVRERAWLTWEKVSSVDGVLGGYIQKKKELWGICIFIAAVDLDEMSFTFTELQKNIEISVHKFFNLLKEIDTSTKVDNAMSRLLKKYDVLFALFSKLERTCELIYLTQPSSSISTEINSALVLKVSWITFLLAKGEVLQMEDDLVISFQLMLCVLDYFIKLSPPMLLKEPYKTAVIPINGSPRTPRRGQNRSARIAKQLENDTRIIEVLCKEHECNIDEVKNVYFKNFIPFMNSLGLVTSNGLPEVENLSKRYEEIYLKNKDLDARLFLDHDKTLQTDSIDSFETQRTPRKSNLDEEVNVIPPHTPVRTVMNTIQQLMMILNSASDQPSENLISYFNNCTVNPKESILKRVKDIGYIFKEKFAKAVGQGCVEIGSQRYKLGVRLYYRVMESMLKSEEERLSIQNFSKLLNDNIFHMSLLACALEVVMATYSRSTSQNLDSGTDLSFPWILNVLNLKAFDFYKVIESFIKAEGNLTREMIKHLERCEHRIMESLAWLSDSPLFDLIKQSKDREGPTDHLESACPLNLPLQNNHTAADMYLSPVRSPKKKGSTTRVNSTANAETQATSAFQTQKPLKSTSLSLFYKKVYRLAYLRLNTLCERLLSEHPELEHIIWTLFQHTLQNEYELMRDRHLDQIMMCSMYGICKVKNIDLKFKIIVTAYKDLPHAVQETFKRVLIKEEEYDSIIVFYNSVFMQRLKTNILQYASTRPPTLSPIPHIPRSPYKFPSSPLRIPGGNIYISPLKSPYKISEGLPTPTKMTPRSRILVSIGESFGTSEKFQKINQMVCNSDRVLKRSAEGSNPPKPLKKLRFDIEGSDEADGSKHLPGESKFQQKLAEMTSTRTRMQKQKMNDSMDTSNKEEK

For “Gluc1-38.E7 (human papillomavirus type 38)”, the binding [1] was “binds” and the binding [2] was “binds”.
